# From the supplement of paper PMC12024529
# Counter-ions that a name gives are not always drawn. This is one part of the list. Part of the spread comes from offsets between plates or batches.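 Wild-type or misfolding-prone missense mutant B-domain-deleted factor VIII, fused to Gaussia luciferase, is stably expressed in HEK293 lines. Each score is (mean triplicate-well luminescence minus DMSO mean) divided by DMSO standard deviation. Hits score at least 2; lower scores could stem from decreased secretion or poorer cell viability.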
# Test system: HEK293 WT BDD-FVIII-Gluc
# Test: secreted FVIII-Gluc luciferase Z-score vs DMSO control; higher = more FVIII-Gluc secretion
# Settings: 5 µM; 24 h
row,Structure (SMILES),secreted FVIII-Gluc luciferase Z-score
1,C[N+](C)(CCOc1ccccc1)Cc1ccccc1.O=C([O-])c1cc2ccccc2cc1O [Bephenium Hydroxynaphthoate],inactive: -0.666
2,O=C(c1ccccc1)c1ccc2n1CCC2C(=O)O (stereo not drawn) [Ketorolac (Toradol)],inactive: 1.13
3,CCn1cc(C(=O)O)c(=O)c2cnc(N3CCCC3)nc21 [Piromidic Acid],inactive: -0.866
4,Nc1ccc(C(=O)O)c(O)c1 [Aminosalicylate sodium],inactive: -1.12
5,COc1ccccc1N1CCN(CCCNc2cc(=O)n(C)c(=O)n2C)CC1 [Urapidil HCl],inactive: 0.251
6,CC(=O)NS(=O)(=O)c1ccc(NC(=O)c2ccccc2C(=O)O)cc1 [Phthalylsulfacetamide],inactive: -0.664
7,Cc1cccc(N(C)C(=S)Oc2ccc3ccccc3c2)c1 [Tolnaftate],inactive: -2.17
8,CC1(C)O[C@@H]2C[C@H]3[C@@H]4C[C@H](F)C5=CC(=O)C=C[C@]5(C)[C@@]4(F)[C@@H](O)C[C@]3(C)[C@]2(C(=O)CO)O1 [Fluocinolone acetonide (Flucort-N)],active: 4.6
9,CO[C@H]1O[C@@H]2O[C@@]3(C)CC[C@H]4[C@H](C)CC[C@@H]([C@H]1C)[C@@]24OO3 [Artemether (SM-224)],inactive: -0.474
10,OCCOCCN1CCN(C2=Nc3ccccc3Sc3ccccc32)CC1 [Quetiapine fumarate (Seroquel)],inactive: -1.48
11,CC(=O)O[C@]1(C(C)=O)CC[C@H]2[C@@H]3C[C@H](C)C4=CC(=O)C=C[C@]4(C)[C@@]3(F)[C@@H](O)C[C@@]21C [Fluorometholone Acetate],active: 2.72
12,Cc1ccc(O)c([C@H](CCN(C(C)C)C(C)C)c2ccccc2)c1 [Tolterodine tartrate (Detrol LA)],inactive: -1.08
13,COC(=O)C1=C(C)NC(C)=C(C(=O)OCCN(C)Cc2ccccc2)C1c1cccc([N+](=O)[O-])c1 (stereo not drawn) [Nicardipine HCl],inactive: -0.0466
14,C[C@@H]1C[C@H]2[C@@H]3CCC4=CC(=O)C=C[C@]4(C)[C@@]3(F)[C@@H](O)C[C@]2(C)[C@@]1(O)C(=O)CO [Dexamethasone],inactive: 1.46
15,CCOc1nc2cccc(C(=O)O)c2n1Cc1ccc(-c2ccccc2-c2nnn[nH]2)cc1 [Candesartan (Atacand)],inactive: -2.28
16,C[N+]1(C)[C@@H]2CC[C@H]1C[C@@H](OC(=O)C(O)c1ccccc1)C2 (stereo partly drawn) [Homatropine Methylbromide],inactive: -0.166
17,C[N+](C)(C)CC(O)CC(=O)[O-] (racemic) [DL-Carnitine hydrochloride],inactive: -0.702
18,Nc1ccn([C@@H]2O[C@H](CO)[C@@H](O)[C@H]2O)c(=O)n1 [Cytidine],inactive: -1.76
19,Cc1cc(C2CCCCC2)n(O)c(=O)c1 [Ciclopirox (Penlac)],inactive: 0.413

# An excerpt taken from the entries so far, as a working copy:
row,Structure (SMILES),secreted FVIII-Gluc luciferase Z-score
2,O=C(c1ccccc1)c1ccc2n1CCC2C(=O)O (stereo not drawn) [Ketorolac (Toradol)],inactive: 1.13
3,CCn1cc(C(=O)O)c(=O)c2cnc(N3CCCC3)nc21 [Piromidic Acid],inactive: -0.866

# Later entries

row,Structure (SMILES),secreted FVIII-Gluc luciferase Z-score
1,CC(=O)[C@]1(O)Cc2c(O)c3c(c(O)c2[C@@H](O[C@H]2C[C@H](N)[C@H](O)[C@H](C)O2)C1)C(=O)c1ccccc1C3=O [Idarubicin HCl],inactive: -1.92
2,O=C1[C@H](CC[C@H](O)c2ccc(F)cc2)[C@@H](c2ccc(O)cc2)N1c1ccc(F)cc1 [Ezetimibe (Zetia)],inactive: -3.22
3,O=C(C1CCCCC1)N1CC(=O)N2CCc3ccccc3C2C1 (stereo not drawn) [Praziquantel (Biltricide)],inactive: -2.19
4,C[C@]12CCC3=C4CCC(=O)C=C4CC[C@H]3[C@@H]1CC[C@@]2(O)CC#N [Dienogest],inactive: -0.623
5,Cc1ccc(C(=O)Nc2ccc(CN3CCN(C)CC3)c(C(F)(F)F)c2)cc1C#Cc1cnc2cccnn12,inactive: -12.5
6,N#Cc1ccc(C(c2ccc(C#N)cc2)n2cncn2)cc1 [Letrozole],inactive: -0.946
7,Nc1ncnc2c1ncn2[C@@H]1O[C@H](CO)[C@@H](O)[C@@H]1O [Vidarabine (Vira-A)],inactive: -2.25
8,CS(=O)(=O)c1ccc([C@@H](O)[C@@H](CF)NC(=O)C(Cl)Cl)cc1 [Florfenicol],inactive: -0.949
9,CC(=O)OCC(=O)[C@@]1(O)CC[C@H]2[C@@H]3CCC4=CC(=O)C=C[C@]4(C)[C@H]3[C@@H](O)C[C@@]21C [Prednisolone acetate (Omnipred)],active: 6.13
10,O=C(O)COCCN1CCN(C(c2ccccc2)c2ccc(Cl)cc2)CC1 (stereo not drawn) [Cetirizine Dihydrochloride],inactive: -3
11,CNC(=O)c1ccccc1Sc1ccc2c(/C=C/c3ccccn3)n[nH]c2c1 [Axitinib],inactive: -2.62
12,COc1ccc2c(c1OC)C(=O)O[C@@H]2[C@H]1c2c(cc3c(c2OC)OCO3)CCN1C [Noscapine HCl],inactive: -1.84
13,CC(C(=O)O)c1ccc2c(c1)CC(=O)c1ccccc1S2 (stereo not drawn) [Zaltoprofen],inactive: 0.536
14,Clc1ccc(COC(Cn2ccnc2)c2ccc(Cl)cc2Cl)c(Cl)c1 (stereo not drawn) [Miconazole nitrate],inactive: -3.09
15,CC(NC(=O)Cc1cc(F)cc(F)c1)C(=O)NC(C(=O)OC(C)(C)C)c1ccccc1 (stereo not drawn),inactive: -1.24
16,N#CC1(c2ccc(NC(=O)c3cccnc3NCc3ccncc3)cc2)CCCC1 [Apatinib (YN968D1)],inactive: -0.0563
17,C[C@@H]1CCN(C(=O)CC#N)C[C@@H]1N(C)c1ncnc2[nH]ccc12,active: 2.12
18,CC(=O)[C@H]1CC[C@H]2[C@@H]3C=CC4=CC(=O)CC[C@@]4(C)[C@@H]3CC[C@]12C [Dydrogesterone],inactive: 1.33
19,COc1c2ccoc2cc2oc(=O)ccc12 [Bergapten],inactive: -1.09
